# PubChem BioAssay AID504808, Drosophila RNAi Screening Center | 2011
# Aim: 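Chromatin factors that keep E2F targets switched off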 (primary screen)
# System: Drosophila S2 cells
# Knock-down reagent: long dsRNA against Drosophila genes
# Detection: 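Dual luciferase plate measurements; E2F-specific signal taken as firefly over Renilla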
# Scale: E2F firefly: higher = more E2F reporter activity; Renilla normaliser: higher = more normaliser reporter signal
# Active means: 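a knock-down counted as active when the firefly/Renilla E2F signal rose above 50%, a threshold chosen arbitrarily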
# The screen tested about 21,000 reagents; this is an unselected part of those that have a named target and a result. In the full data, 18 (0.084%) got an active call. 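Raw counts without plate normalisation, one of two replicates; the ratio scores behind the calls were not deposited.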 A number with no mark means an inactive call. The numbers tell different reagents against one gene apart. Reagent sequences are not shown. The record does not give: the amount of reagent, the time to read-out.
gene knocked down,dsRNA no.,"E2F firefly, rep 1","Renilla normaliser, rep 1"
msopa (male-specific opa containing gene),1,74313,7784
CG14205,1,1.40e5,6388
Rab21,1,1.34e5,5223
Non2 (Novel nucleolar protein 2),1,82911,3431
CG12942,1,154,30
CG31798,1,1.20e5,6065
CG1943,1,1.44e5,6937
CG2611,1,83285,3692
Upf2,1,1.15e5,5513
snz (snazarus),1,55724,3631
CG3347,1,1.54e5,4856
CG34029,1,1.29e5,4226
CG7182,1,81163,3518
mRpS28 (mitochondrial ribosomal protein S28),1,1.43e5,5023
TTLL3A (Tubulin tyrosine ligase-like 3A),1,1.67e5,5223
CG16989,1,79857,4542
JMJD7 (Jumonji domain containing 7),1,51345,3263
Agpat2 (1-Acylglycerol-3-phosphate O-acyltransferase 2),1,70105,3096
CG31705,1,60192,3644
"SmydA-5 (SET and MYND domain containing, arthropod-specific, member 5)",1,1.08e5,4572
CG31867,1,1.45e5,5227
CG6763,1,1.07e5,6546
d4,1,94844,4003
CG10467,1,97246,3606
Son (Son RNA binding protein),1,1.29e5,6025
Cyt-c-d (Cytochrome c distal),1,1.01e5,3929
meso18E,1,1.23e5,6646
hoip (hoi-polloi),1,64783,159
CG43894,1,81160,4938
Adgf-E (Adenosine deaminase-related growth factor E),1,98472,3827
rnh1 (ribonuclease H1),1,1.43e5,4686
Sik3 (Salt-inducible kinase 3),1,1.37e5,5048
Sik3 (Salt-inducible kinase 3),2,71569,3936
CG8353,1,1.38e5,4596
nopo (no poles),1,64042,3191
Hers (Histone gene-specific Epigenetic Repressor in late S phase),1,1.59e5,5445
Hers (Histone gene-specific Epigenetic Repressor in late S phase),2,1.34e5,6345
CG17698,1,1.41e5,7499
nero,1,1560,808
CG34266,1,1.26e5,4196
CG13069,1,1.55e5,8215
CG10470,1,93248,4376
CG8067,1,150,41
Aven (Apoptosis and caspase activation inhibitor),1,1.35e5,6442
CG18636,1,1.08e5,4441
NijA (Ninjurin A),1,1.28e5,7195
vers (versatile),1,62466,3745
pot (papillote),1,8374,852
Kpc2 (Kip1 ubiquitination-promoting complex subunit 2),1,1.34e5,4886
CG9747,1,80372,804
OtopLa (Otopetrin-like a),1,1.08e5,5066
OtopLa (Otopetrin-like a),2,1.19e5,5498
S1P (Site-1 protease),1,1.39e5,6514
onecut,1,1.29e5,6162
CG10013,1,67327,3214
GluRIIE (Glutamate receptor IIE),1,86868,2515
CG8679,1,99566,4367
Tdrd3 (Tudor domain containing 3),1,1.62e5,8206
CG14362,1,1.07e5,7893
CG14743,1,1.54e5,5167
Obp99a (Odorant-binding protein 99a),1,1.08e5,6595
Tsp66E (Tetraspanin 66E),1,88956,3704
GstE6 (Glutathione S transferase E6),1,1.61e5,5148
VGAT (Vesicular GABA Transporter),1,98847,4098
eEF5 (eukaryotic translation elongation factor 5),1,1.08e5,4362
tim (timeless),1,82270,3188
Calx (Na/Ca-exchange protein),1,85991,2375
Calx (Na/Ca-exchange protein),2,77190,2462
Calx (Na/Ca-exchange protein),3,1.20e5,7214
nclb (no child left behind),1,1.38e5,4918
CG32830 (retired record),1,85419,4069
CG8065,1,1.14e5,6661
CG3081,1,75417,4207
Gart (GART trifunctional enzyme),1,1.54e5,5005
Brf (Brf RNA polymerase III subunit),1,82323,2592
Brf (Brf RNA polymerase III subunit),2,1.12e5,6900
Brf (Brf RNA polymerase III subunit),3,1.24e5,7047
Dis3l2 (Dis3 like 3'-5' exoribonuclease 2),1,81999,3215
CG18747,1,1.44e5,7043
CG12895,1,1.54e5,4788
Gadd45 (Growth arrest and DNA damage-inducible 45),1,1.38e5,4765
Flacc (Fl(2)d-associated complex component),1,1.43e5,5956
CG8929,1,69019,3774
Uch-L5R (Uch-L5-related),1,1.11e5,7455
